Assay results from PubChem BioAssay AID504467 (National Center for Advancing Translational Sciences (NCATS), 2011).
Among all 330,000 compounds or so, about 7,700 (2.3%) were called active. The inconclusive results got no clear call from the source; some entries with a clear call stand among them for comparison. The call rests on the fitted dose curve; in most records, active means well fitted inhibition curve with a large enough effect; inconclusive means small, poorly fitted or top-dose-only effect, or effect the other way; inactive means flat fitted curve, though single readings scatter. Potencies beside an inconclusive call are fits to weak or partial responses and may not hold up.

experiment: qHTS screen for small molecules that inhibit ELG1-dependent DNA repair in human embryonic kidney (HEK293T) cells expressing luciferase-tagged ELG1; conditions: HEK293T ELG1-luciferase reporter, luminescence, 16 h, DNA damage induced by 5-fluorouridine; activity change, negative = inhibition: at 46.1 µM (top of the series); further: nearly all actives have a fitted effect of over 55% in size
How it was run: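 Cells (2,000 per well) received 5-fluorouridine plus test compound or DMSO and were incubated 16 hr at 37 °C, 5% CO2. Luciferase activity was read by luminescence 30 min after ONE-Glo addition; signal suppression marked inhibition of damage-induced ELG1 function.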
On the % scale 0 is the no-effect control and ±100 the full control effect; potency means the concentration at half of the fitted maximal effect.

Q: Which “activity change, negative = inhibition” value does the source give for `Cn1c2ccccc2c2c(C(=O)NCCCN3CCCC3=O)cn(C3CCCCC3)c(=O)c21` here?
A: Its value is inactive: -15.9%.

Q: For `O=C(c1ccc2nc(Cc3ccccc3F)oc2c1)N1CC[C@H](O)C1`, which Potency is on record?
A: The Potency was inconclusive: 29.1 µM [activator, single point].

Q: Which Potency does the source give for `COc1ccc(OC)c(NC(=O)c2cccc(NC(=O)c3ccccc3)c2)c1` here?
A: Its Potency is inconclusive: 23.1 µM [inhibitor, single point].

Q: For `Cc1ccc(-c2n[nH]c(=O)c3ccccc23)cc1S(=O)(=O)Nc1ccccc1`, which Potency is on record?
A: The Potency was inconclusive: 16.4 µM [inhibitor, single point].

Q: With `Nc1c(-c2ccccc2)cnc2c(-c3ccccc3)cnn12` as the compound, how does the Potency read?
A: Its Potency is inconclusive: 0.206 µM [activator, full curve].

Q: With `CCn1c(=O)c(C(=O)NNC(=O)c2ccccc2Cl)c(O)c2ccccc21` as the compound, how does the “activity change, negative = inhibition” value read?
A: The value was inactive: 10.9%.

Q: Which “activity change, negative = inhibition” value does the source give for `C=CCNC(=O)C1CCN(c2ccc(S(=O)(=O)N3CCOCC3)cc2[N+](=O)[O-])CC1` here?
A: The value was inactive: 2.6%.

Q: For `CC(C)c1nc2sc3c(=O)n(N)cnc3c2c2c1COC(C)(C)C2`, which “activity change, negative = inhibition” value is on record?
A: Its value is inactive: 7.44%.

Q: With `COC(=O)c1ccc(COn2nnc3ccccc32)cc1` as the compound, how does the Potency read?
A: The Potency was inconclusive: 9.2 µM [activator, partial curve].

Q: For `COc1ccc(CNC(=O)C2CCC(CNC(=O)[C@@H]3Cc4ccccc4CN3)CC2)cc1` (stereo partly drawn), which Potency is on record?
A: The Potency was inconclusive: 16.4 µM [activator, partial curve, poor fit].

Q: Which Potency does the source give for `CC1CCC(NC(=O)CC(NC(N)=O)c2ccccc2Cl)CC1` (stereo not drawn) here?
A: Its Potency is inconclusive: 18.3 µM [activator, single point].

Q: For `Cc1noc(C)c1NC(=O)Nc1cccc2c1O[C@H](CN(C)C(=O)Nc1ccc(C(F)(F)F)cc1)[C@@H](C)CN([C@H](C)CO)C2=O`, which Potency is on record?
A: The Potency was inconclusive: 9.2 µM [inhibitor, partial curve].

Q: Which Potency does the source give for `C/C(=N\NC(=O)c1cccc(C)c1O)c1ccc(NC(=O)Cc2ccccc2)cc1` here?
A: Its Potency is inconclusive: 23.1 µM [activator, single point].

Q: With `O=C(CCS(=O)(=O)c1ccc(Br)cc1)N1CCCCCC1` as the compound, how does the Potency read?
A: The Potency was inconclusive: 14.6 µM [activator, partial curve, poor fit].

Q: With `CC(NC(=O)c1ccc(N(C)C)cc1)C(c1cccs1)N1CCN(C)CC1` (stereo not drawn) as the compound, how does the Potency read?
A: Its Potency is inconclusive: 32.6 µM [activator, partial curve, poor fit].

Q: With `COc1ccc2c(c1)oc(=O)c1cc(OC)ccc12` as the compound, how does the Potency read?
A: Its Potency is inconclusive: 14.6 µM [activator, partial curve].

Q: For `O=[N+]([O-])c1ccc(-c2nc(=S)c3c(o2)CCCC3)cc1`, which Potency is on record?
A: Its Potency is inconclusive: 6.51 µM [activator, partial curve].

Q: With `Cn1c(=O)n(C/C=C/c2ccccc2)c(=O)c2c1nc1n2CCCN1Cc1ccccc1` as the compound, how does the Potency read?
A: Its Potency is active: 20.6 µM.
